Measurements taken from article PMC7528720.
No constants are given. Whether binding was seen depends on the method and setting. Binding seen in cells or lysates may run through a third protein. Some binding calls cover weakened binding; strength is not graded here.

Chains of the proteins cited; added tags and fusions are not shown.
UniProt P18266: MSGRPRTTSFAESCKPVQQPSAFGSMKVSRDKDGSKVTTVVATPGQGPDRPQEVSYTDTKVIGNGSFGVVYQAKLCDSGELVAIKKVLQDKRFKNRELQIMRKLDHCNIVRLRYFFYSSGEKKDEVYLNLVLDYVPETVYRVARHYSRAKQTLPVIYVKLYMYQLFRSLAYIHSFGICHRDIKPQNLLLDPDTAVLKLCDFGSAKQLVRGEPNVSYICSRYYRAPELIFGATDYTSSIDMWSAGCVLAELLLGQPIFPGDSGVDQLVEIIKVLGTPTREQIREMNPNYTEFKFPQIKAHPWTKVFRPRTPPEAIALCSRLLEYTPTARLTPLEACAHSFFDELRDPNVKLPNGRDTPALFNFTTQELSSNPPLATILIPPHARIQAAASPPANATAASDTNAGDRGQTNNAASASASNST
UniProt O35303: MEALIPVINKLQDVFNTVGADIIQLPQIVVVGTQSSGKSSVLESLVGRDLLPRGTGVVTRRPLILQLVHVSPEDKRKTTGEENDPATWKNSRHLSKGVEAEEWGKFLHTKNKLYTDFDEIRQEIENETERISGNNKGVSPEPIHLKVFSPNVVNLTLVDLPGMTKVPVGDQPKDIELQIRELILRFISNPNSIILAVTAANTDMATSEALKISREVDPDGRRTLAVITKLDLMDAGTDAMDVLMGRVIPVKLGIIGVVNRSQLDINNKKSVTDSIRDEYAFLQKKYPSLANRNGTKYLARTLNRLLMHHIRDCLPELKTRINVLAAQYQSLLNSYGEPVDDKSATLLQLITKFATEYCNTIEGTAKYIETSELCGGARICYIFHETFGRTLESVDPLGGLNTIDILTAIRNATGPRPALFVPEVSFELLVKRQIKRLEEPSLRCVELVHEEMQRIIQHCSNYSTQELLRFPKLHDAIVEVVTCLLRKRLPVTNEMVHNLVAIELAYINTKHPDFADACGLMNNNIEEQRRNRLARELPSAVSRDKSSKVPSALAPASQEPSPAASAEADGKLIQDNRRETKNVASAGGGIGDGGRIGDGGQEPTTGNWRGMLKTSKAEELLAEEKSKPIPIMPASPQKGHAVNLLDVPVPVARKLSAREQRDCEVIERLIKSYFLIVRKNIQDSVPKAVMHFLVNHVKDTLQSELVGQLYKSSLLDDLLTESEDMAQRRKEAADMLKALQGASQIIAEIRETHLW

Target: Glycogen synthase kinase-3β (rat (endogenous in H9c2)) (UniProt P18266)
Assay: co-IP; H9c2 lysate supernatant incubated overnight at 4°C with anti-GSK-3β antibody, then protein A agarose beads 2 h at room temperature; washed six times with 1x IP buffer and once with 0.1x IP buffer; blot with anti-Drp1; cells after hypoxia/reoxygenation (H/R), with or without LS-102 pre-treatment

With “Dynamin-related protein1 (from UniProt O35303 1-755)” the binding was “binds”.
